We go through 54 sequences from article PMC7819943, “Rice protein-binding microarrays: a tool to detect cis-acting elements near promoter regions in rice”.

The chains behind the UniProt entries cited, without tags or fusion partners.
UniProt Q0JBA9, entry or part of it: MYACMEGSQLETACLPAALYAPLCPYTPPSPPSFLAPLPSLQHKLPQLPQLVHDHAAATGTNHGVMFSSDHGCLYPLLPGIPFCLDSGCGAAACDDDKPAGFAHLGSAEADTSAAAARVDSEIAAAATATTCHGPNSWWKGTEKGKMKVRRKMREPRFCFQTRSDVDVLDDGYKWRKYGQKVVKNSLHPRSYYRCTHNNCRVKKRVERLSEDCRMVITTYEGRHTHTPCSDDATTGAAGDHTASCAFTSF

The other results are listed elsewhere or left out.

This test has as its target OsWRKY34 (Oryza sativa, UniProt Q0JBA9 1-250). The experiment in a line: protein-binding microarray (RPBM); PBS, 2% BSA, 51.3 ng/ul salmon testes DNA, 50 uM zinc acetate, 200 nM TF, 25 C, 1 h; high values mean tight binding. The following applies: protein: recombinant; tags: N-terminal polyhistidine and DsRed monomer fusion (pET32a); label: CyDye5-dUTP incorporated in the synthesized complementary strand; 3' TTTTT single-stranded linker to array surface; dsDNA, one strand shown. In outline:
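Polyhistidine-tagged DsRed fusions of transcription factors, joined at the N-terminus, were expressed in E. coli BL21-CodonPlus and isolated on Ni–NTA. They were incubated at 200 nM for 1 h at 25 °C on a custom Agilent array, double-stranded and BSA-blocked, in PBS with 2% BSA, salmon testes DNA and 50 µM zinc acetate. The binding signal is per-feature fluorescence intensity (arbitrary units) read on an Axon 4000B scanner after washing.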
In the case of “AGACCATGTTCAACTTCATCTACCGTCTTAAATTTGACTTCGGAGTCACCTAGTGCAG”, the binding signal is 8420 fluorescence intensity (a.u.).

On to “GTAGTAGTTCTTTTTTCCTTCCGAGATCTTCCATAGTCACCGGAGTCACCTAGTGCAG”, for which the binding signal is 10500 fluorescence intensity (a.u.).

As to “AGCTTGTTGCATTTCCTGCTTCTTACTGCTACGAATTGTTCGGAGTCACCTAGTGCAG”, the binding signal was 8560 fluorescence intensity (a.u.).

“TTCCAGTATTTCTCGTCGCTCTCGATGCAATTGAAAAAAACGGAGTCACCTAGTGCAG”: the binding signal was 8710 fluorescence intensity (a.u.).

As for “TATTATTATTATTATTATTATCATGCCCTGTTCCTTTTTTCGGAGTCACCTAGTGCAG”, the binding signal was 8710 fluorescence intensity (a.u.).

In the case of “TACTACTACCCATGGTCCTGGAATTTTCACCCGCATCTGCCGGAGTCACCTAGTGCAG”, the binding signal is 8300 fluorescence intensity (a.u.).

As for “ACATGCCATTTCTATTTACTCCTATCAACTCTCATCAATGCGGAGTCACCTAGTGCAG”, the binding signal is 9810 fluorescence intensity (a.u.).

Regarding “TTGCATGTCTTTCTGAGAAATTTTTTCAGTTGAATTTATCCGGAGTCACCTAGTGCAG”, the binding signal is 8130 fluorescence intensity (a.u.).

As to “GTGGTGGGGAAAGGATAGGGATAAAACTTTGATATTTTTTCGGAGTCACCTAGTGCAG”, the binding signal is 8760 fluorescence intensity (a.u.).

Turning to “AAGTTGACCAAAAGTCTTCACCTAGTCGTCGTCTTCCCTCCGGAGTCACCTAGTGCAG”, the binding signal was 12000 fluorescence intensity (a.u.).

Consider “TGCAATGTCCGCTTTCTATGTAATTCGAGCTACTCCAGGTCGGAGTCACCTAGTGCAG”, for which the binding signal was 8270 fluorescence intensity (a.u.).

On to “ATCATGCAATAATACAAGTTTCGTTTTGCGTCCTCCCGAACGGAGTCACCTAGTGCAG”, for which the binding signal is 8200 fluorescence intensity (a.u.).

For the sequence “GCCTCTCGCCTGCAAGCATCATCTGCTTCTCCTCTAACTCCGGAGTCACCTAGTGCAG”, the binding signal was 8560 fluorescence intensity (a.u.).

Regarding “GGGCTTTCTTCCTAGTAGATGTTAATGGATGTAGATATATCGGAGTCACCTAGTGCAG”, the binding signal is 12200 fluorescence intensity (a.u.).

For “TTGGCTTCTATTCTTACCCTTCAGATGGTTGTACCTCCCACGGAGTCACCTAGTGCAG”, the binding signal is 9410 fluorescence intensity (a.u.).

Turning to “GTGCGCTTTGGCCGGAGGCACCGTCGCCGCCTGCTATATCCGGAGTCACCTAGTGCAG”, the binding signal was 8040 fluorescence intensity (a.u.).

As for “TAGTTTAATGTTTCCGTATTTGTTACCGGTTTCCGATCTGCGGAGTCACCTAGTGCAG”, the binding signal is 11400 fluorescence intensity (a.u.).

As to “GCCGCCGACCTACTCTGTCACACACACGCTTCCCGAACTCCGGAGTCACCTAGTGCAG”, the binding signal is 14800 fluorescence intensity (a.u.).

On to “TGCACTGGGCTCCCATCTGAATGTCCTTATGCCAACCTCCCGGAGTCACCTAGTGCAG”, for which the binding signal is 8520 fluorescence intensity (a.u.).

Regarding “TTTTTTTTTGTTTATTTCGTTTCTCTTCCGTCTTTTTTTTCGGAGTCACCTAGTGCAG”, the binding signal was 12900 fluorescence intensity (a.u.).

For the sequence “CATCTCCTCCGTTTTCCGCGCACATGTTTTTTAAACTGCTCGGAGTCACCTAGTGCAG”, the binding signal is 10400 fluorescence intensity (a.u.).

Regarding “GCCCAGCACCAGCGCACCGCCACCCCATTTTCTTTTATTCCGGAGTCACCTAGTGCAG”, the binding signal was 9420 fluorescence intensity (a.u.).

In the case of “CTCTCTCCGTCTCATAATATAAAGGATTTTAAGTTTTTACCGGAGTCACCTAGTGCAG”, the binding signal is 8100 fluorescence intensity (a.u.).

“TGCCGTGCACCTCTTTCCTCGCCGCCTAACTCCTCTGCGGCGGAGTCACCTAGTGCAG”: the binding signal is 11400 fluorescence intensity (a.u.).

Consider “TTCCTGTGATCCTCTGTACATTAAGTCTCGACGTGGGCCACGGAGTCACCTAGTGCAG”, for which the binding signal was 10900 fluorescence intensity (a.u.).

“GCGTGCCGGGGTTGGGGCTGGCTGTACATACAAATCTTACCGGAGTCACCTAGTGCAG”: the binding signal is 15200 fluorescence intensity (a.u.).

In the case of “CTGTGCATCTTTTGTTTTTCCTTTTTTTCCACACCCAATCCGGAGTCACCTAGTGCAG”, the binding signal was 8540 fluorescence intensity (a.u.).

As to “AACCCAGCTCTCAAAAGCCCACTGCAACCGCTTAATTACTCGGAGTCACCTAGTGCAG”, the binding signal is 8350 fluorescence intensity (a.u.).

For the sequence “TCCATTCCCGCGCCGGGTTTTGGGGTGGTGTGTTGATGCGCGGAGTCACCTAGTGCAG”, the binding signal is 10900 fluorescence intensity (a.u.).

Turning to “GTCGTTGTGTGCGTGCATGGCACTGTTGATGTCGAGTATACGGAGTCACCTAGTGCAG”, the binding signal is 8370 fluorescence intensity (a.u.).

As to “CAGGCCGCTACTACCACCAAACCCCATTTCGTTCATTTCACGGAGTCACCTAGTGCAG”, the binding signal was 9530 fluorescence intensity (a.u.).

Consider “CCATCTTAACGCGCCGCGTCCACCCGAGCCGGTTTCTGTACGGAGTCACCTAGTGCAG”, for which the binding signal was 9440 fluorescence intensity (a.u.).

With “ATAGTGCCAAGTCAAACATTTTTAGCTTTGATTATTAATACGGAGTCACCTAGTGCAG”, the binding signal is 11300 fluorescence intensity (a.u.).

As to “ATTTTCTTCCCATGGCTGCCTCCACGACGCCCGCGCCTTCCGGAGTCACCTAGTGCAG”, the binding signal is 11600 fluorescence intensity (a.u.).

Take “GGTGCAGCGGTGGTGGCGTTGGGGTGGGCATGGCGGCTCGCGGAGTCACCTAGTGCAG”: the binding signal is 13100 fluorescence intensity (a.u.).

Consider “TTACTTTGTTGATTCTTTCCTTTGTTTTTTTTTTCTTTTCCGGAGTCACCTAGTGCAG”, for which the binding signal was 8510 fluorescence intensity (a.u.).

Turning to “ATCTGCCCTATCTGGTCCCACCCATCAGTGGCCCACACCTCGGAGTCACCTAGTGCAG”, the binding signal was 8700 fluorescence intensity (a.u.).

Consider “GCTAACATCACCACAAACAACACCATTGTTATGCTCTTAACGGAGTCACCTAGTGCAG”, for which the binding signal was 8500 fluorescence intensity (a.u.).

On to “GATTAGTTCTGTTACTGCATGTACTTTCTTTTATCTATCTCGGAGTCACCTAGTGCAG”, for which the binding signal is 9420 fluorescence intensity (a.u.).

On to “TTTTCAAATTTGTGTTTTTACCATTTCCCTCTGTCCGTAACGGAGTCACCTAGTGCAG”, for which the binding signal was 8800 fluorescence intensity (a.u.).

Consider “CCCACGCCGCCGCCGCCGCCACGTCCGCCTTTTCCCCGCTCGGAGTCACCTAGTGCAG”, for which the binding signal is 8040 fluorescence intensity (a.u.).

Regarding “TCTTTCTAGTATTCTGCATTCCATTTAGGTTTCTTTTCCACGGAGTCACCTAGTGCAG”, the binding signal was 9360 fluorescence intensity (a.u.).

For “ACCGTGCATTCCAGTGAGGCCCTTATCTTTCTTGTTATAGCGGAGTCACCTAGTGCAG”, the binding signal was 9600 fluorescence intensity (a.u.).

“ATCGCGCATCCACTCCACACCACACGCTTCACTGGTTCCGCGGAGTCACCTAGTGCAG”: the binding signal was 9180 fluorescence intensity (a.u.).

In the case of “AAAACCTCGTTTTTCACGCACACGTTTTCCGAACTTTTCACGGAGTCACCTAGTGCAG”, the binding signal is 10100 fluorescence intensity (a.u.).

For “GGTGGGGCTGTTAGTTAATTATAATGGCTTAATCCAGAGACGGAGTCACCTAGTGCAG”, the binding signal was 11800 fluorescence intensity (a.u.).

Take “TATATATATATATATATATATATATATGTGTGTGTGTGTTCGGAGTCACCTAGTGCAG”: the binding signal was 14600 fluorescence intensity (a.u.).

In the case of “AAAGCCTGTGGCCACATCTTATCTTTTCCATCCTTTGCATCGGAGTCACCTAGTGCAG”, the binding signal was 8040 fluorescence intensity (a.u.).

For the sequence “GTGTCACAATTTTTAAAATGTTTCATTTGCTGATTTTTTTCGGAGTCACCTAGTGCAG”, the binding signal was 8320 fluorescence intensity (a.u.).

For the sequence “GTTGTTCTGTACCTTCTTGCTTGTTACCATGGCTGTTATCCGGAGTCACCTAGTGCAG”, the binding signal was 10500 fluorescence intensity (a.u.).

For “TACCCGTGTAATCAATCACCTCTCTTTTTATTTTTTAATACGGAGTCACCTAGTGCAG”, the binding signal is 8400 fluorescence intensity (a.u.).

Turning to “ATCTTCTGCCAGTATTGCCGGTCCAAAAAGCCCACATGAGCGGAGTCACCTAGTGCAG”, the binding signal was 8210 fluorescence intensity (a.u.).

For the sequence “ATTTTATAACATTAGACGTAACTGAACTTGTGTGCATTGCCGGAGTCACCTAGTGCAG”, the binding signal was 8030 fluorescence intensity (a.u.).

With “ACTCTTACTCTGATCTCCACAATTTCCAGCGATCCTGTAACGGAGTCACCTAGTGCAG”, the binding signal is 9170 fluorescence intensity (a.u.).
